The supplement of paper PMC7666118
The other results are listed elsewhere or left out.

The chains behind the UniProt entries cited, without tags or fusion partners. Where a name states a change or a piece, a line headed by the entry shows the natural chain unless it says otherwise.
UniProt P19793: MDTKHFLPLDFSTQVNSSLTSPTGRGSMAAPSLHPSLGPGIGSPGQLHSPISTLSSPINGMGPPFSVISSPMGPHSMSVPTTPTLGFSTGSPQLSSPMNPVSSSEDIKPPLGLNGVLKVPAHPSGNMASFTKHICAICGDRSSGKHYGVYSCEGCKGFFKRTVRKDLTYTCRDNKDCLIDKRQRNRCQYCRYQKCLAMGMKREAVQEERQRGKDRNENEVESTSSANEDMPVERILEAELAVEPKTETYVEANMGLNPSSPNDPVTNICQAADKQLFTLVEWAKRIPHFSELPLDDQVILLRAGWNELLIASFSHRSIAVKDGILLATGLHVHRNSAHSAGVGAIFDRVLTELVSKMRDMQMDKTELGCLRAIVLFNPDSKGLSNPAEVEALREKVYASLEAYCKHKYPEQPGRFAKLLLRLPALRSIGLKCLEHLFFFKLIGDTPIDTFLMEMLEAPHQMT
UniProt Q14141: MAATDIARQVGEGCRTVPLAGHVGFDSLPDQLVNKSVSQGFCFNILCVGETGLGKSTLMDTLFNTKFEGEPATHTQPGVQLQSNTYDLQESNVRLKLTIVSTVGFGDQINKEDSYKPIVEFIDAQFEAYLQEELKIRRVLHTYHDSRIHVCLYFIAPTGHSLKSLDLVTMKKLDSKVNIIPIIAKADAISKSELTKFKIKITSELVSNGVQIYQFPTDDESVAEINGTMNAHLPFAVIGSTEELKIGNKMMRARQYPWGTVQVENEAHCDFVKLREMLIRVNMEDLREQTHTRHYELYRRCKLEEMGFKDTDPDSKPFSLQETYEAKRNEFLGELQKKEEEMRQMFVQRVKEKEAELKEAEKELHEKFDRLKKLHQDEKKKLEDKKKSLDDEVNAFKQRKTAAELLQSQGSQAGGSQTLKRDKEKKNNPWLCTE
UniProt Q969K3: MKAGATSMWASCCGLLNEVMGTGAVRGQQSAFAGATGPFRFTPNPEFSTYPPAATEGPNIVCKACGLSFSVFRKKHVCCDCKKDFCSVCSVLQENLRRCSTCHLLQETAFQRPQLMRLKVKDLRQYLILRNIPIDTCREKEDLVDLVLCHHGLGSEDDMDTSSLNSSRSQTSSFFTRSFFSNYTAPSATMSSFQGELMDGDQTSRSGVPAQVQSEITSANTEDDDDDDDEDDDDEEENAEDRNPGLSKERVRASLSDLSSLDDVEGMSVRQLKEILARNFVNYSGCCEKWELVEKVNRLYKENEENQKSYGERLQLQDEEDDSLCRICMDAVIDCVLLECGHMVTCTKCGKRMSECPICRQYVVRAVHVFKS
UniProt O00767: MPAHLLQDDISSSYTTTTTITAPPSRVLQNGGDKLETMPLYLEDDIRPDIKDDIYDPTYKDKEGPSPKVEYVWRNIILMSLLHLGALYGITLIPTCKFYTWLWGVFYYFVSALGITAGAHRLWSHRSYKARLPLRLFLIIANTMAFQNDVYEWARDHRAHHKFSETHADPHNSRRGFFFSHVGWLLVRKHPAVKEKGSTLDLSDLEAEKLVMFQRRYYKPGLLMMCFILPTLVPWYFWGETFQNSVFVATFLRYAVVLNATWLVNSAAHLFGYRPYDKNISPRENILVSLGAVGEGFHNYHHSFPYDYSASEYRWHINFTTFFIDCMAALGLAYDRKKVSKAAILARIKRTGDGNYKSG
UniProt Q15436: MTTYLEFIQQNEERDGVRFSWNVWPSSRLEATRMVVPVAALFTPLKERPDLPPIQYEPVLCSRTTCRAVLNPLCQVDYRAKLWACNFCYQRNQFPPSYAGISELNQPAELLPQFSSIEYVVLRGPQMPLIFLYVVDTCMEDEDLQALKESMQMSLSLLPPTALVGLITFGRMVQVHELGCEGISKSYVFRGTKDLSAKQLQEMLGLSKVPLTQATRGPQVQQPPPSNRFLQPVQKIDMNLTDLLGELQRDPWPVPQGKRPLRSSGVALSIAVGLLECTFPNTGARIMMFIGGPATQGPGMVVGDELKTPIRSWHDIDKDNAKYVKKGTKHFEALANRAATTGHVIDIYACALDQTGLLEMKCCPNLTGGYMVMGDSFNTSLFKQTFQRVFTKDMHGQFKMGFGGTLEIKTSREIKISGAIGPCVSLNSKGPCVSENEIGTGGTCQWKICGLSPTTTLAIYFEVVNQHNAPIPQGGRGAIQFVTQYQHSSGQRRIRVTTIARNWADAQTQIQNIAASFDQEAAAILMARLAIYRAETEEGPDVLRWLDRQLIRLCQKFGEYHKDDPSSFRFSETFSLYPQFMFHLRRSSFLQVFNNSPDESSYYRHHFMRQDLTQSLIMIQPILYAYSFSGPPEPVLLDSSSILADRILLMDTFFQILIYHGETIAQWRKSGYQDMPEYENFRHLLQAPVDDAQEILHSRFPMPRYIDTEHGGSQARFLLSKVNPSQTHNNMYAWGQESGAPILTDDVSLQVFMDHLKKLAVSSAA
UniProt Q96FV2: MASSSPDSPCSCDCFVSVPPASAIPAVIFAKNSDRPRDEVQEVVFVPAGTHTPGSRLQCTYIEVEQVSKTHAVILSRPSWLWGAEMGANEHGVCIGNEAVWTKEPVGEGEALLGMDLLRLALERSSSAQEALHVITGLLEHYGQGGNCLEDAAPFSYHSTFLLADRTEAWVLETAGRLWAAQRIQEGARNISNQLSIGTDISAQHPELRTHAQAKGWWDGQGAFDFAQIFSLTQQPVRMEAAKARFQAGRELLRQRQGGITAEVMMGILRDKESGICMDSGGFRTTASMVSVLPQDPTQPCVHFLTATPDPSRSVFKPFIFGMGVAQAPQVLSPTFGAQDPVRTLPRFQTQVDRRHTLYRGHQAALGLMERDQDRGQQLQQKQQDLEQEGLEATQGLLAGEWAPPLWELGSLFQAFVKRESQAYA
UniProt P04844: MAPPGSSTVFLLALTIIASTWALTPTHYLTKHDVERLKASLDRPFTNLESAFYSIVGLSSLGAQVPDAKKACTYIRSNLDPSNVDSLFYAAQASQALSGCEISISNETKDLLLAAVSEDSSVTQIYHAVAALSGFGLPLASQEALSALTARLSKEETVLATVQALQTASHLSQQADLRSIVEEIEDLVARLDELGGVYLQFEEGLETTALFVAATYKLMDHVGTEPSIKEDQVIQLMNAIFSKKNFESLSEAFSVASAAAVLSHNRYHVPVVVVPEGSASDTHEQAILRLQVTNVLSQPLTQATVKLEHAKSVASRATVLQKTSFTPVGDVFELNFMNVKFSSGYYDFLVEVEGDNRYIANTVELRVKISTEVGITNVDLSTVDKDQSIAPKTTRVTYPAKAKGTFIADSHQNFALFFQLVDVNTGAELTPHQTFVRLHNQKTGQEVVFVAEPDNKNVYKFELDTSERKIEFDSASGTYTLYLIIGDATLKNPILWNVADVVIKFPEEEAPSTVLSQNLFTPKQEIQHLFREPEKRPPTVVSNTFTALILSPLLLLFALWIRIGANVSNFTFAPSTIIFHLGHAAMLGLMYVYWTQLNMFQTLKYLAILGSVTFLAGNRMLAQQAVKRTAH
UniProt P60468, whole entry: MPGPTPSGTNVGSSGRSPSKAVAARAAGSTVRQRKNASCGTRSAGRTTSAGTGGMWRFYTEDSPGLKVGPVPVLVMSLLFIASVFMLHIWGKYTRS
UniProt Q9BRK5: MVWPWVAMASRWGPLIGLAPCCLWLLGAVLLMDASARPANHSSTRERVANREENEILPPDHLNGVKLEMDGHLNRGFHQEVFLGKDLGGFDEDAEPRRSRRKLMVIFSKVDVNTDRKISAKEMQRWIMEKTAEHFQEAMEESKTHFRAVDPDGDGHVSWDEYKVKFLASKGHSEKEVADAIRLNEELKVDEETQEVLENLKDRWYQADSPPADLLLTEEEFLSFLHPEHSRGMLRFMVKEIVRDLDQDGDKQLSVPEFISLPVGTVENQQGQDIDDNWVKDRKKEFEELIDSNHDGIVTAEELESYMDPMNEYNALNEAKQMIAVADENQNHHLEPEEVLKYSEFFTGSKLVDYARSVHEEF
UniProt Q9UHD8: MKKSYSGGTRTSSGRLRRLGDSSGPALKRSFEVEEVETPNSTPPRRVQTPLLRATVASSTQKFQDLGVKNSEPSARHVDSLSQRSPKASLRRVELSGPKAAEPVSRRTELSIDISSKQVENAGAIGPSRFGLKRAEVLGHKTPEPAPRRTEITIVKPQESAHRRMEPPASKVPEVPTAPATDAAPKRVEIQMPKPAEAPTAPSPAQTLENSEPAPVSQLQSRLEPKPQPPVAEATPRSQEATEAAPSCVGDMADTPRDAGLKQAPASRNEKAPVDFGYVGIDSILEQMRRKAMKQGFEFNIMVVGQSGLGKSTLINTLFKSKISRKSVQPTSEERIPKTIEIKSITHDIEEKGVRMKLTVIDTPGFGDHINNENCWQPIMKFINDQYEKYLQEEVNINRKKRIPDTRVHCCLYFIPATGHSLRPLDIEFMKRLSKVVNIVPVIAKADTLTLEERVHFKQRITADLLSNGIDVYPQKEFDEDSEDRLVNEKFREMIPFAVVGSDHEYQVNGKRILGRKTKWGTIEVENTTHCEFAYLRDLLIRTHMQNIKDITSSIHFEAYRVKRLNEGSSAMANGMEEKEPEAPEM
UniProt Q96EE3: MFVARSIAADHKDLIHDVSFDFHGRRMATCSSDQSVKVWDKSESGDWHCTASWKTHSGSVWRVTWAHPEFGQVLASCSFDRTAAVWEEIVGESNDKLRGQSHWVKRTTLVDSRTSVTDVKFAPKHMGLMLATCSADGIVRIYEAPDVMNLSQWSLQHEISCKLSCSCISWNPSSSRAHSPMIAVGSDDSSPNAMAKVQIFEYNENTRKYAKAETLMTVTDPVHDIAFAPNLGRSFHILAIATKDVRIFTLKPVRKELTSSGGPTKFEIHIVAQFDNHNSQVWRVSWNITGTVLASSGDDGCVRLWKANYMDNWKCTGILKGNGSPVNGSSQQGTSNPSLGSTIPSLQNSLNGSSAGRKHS
UniProt P05387, whole entry: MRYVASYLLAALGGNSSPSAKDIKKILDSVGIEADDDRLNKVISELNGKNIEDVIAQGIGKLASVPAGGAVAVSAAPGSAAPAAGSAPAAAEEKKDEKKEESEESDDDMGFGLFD
UniProt Q7L099: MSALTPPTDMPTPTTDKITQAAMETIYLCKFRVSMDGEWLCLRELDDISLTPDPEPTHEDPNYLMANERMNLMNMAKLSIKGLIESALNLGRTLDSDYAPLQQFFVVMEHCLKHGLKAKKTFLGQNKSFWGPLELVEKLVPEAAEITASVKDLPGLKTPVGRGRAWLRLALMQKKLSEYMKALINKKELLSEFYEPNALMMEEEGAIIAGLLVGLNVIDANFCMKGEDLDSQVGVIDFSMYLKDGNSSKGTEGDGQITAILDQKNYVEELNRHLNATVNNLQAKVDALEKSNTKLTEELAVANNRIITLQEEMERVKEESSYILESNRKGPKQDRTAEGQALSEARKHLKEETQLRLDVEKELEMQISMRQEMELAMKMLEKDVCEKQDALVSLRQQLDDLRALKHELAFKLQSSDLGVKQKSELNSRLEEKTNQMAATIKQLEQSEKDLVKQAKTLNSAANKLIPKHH
UniProt O75695: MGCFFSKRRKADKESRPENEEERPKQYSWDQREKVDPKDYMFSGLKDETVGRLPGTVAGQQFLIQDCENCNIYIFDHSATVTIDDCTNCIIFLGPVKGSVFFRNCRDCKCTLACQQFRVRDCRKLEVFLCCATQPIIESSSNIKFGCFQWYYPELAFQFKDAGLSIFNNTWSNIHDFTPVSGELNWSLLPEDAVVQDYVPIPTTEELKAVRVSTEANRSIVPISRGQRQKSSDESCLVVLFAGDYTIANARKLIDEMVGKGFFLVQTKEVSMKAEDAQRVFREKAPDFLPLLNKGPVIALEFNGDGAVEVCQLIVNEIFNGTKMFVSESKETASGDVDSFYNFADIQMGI
UniProt Q9HD40: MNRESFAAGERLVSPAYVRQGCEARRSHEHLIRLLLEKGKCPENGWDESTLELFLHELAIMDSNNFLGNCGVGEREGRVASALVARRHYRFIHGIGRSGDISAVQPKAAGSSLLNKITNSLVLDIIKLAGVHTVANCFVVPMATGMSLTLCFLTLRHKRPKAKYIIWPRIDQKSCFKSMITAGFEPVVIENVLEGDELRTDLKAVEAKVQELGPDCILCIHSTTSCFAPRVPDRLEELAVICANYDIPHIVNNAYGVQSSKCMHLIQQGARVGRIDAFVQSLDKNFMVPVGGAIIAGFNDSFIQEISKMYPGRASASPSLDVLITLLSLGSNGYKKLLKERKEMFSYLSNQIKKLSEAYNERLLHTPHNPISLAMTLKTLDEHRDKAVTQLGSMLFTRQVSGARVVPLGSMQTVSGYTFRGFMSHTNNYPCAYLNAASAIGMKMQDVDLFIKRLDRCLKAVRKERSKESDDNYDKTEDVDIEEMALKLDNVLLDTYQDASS
UniProt P18827: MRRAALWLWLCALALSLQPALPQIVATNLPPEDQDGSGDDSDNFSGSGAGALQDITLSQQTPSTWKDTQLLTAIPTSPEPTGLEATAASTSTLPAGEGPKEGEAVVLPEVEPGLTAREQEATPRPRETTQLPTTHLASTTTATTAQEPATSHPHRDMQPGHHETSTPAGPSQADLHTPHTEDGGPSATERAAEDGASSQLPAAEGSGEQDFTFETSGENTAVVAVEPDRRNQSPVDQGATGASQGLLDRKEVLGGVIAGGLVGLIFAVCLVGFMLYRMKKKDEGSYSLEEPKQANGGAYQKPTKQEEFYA

compound: COc1ccc(Cn2ccc3cc(C)c(C(=O)NO)cc32)cc1; test: dose-dependent thermal stabilisation call (2D-TPP, DLPTP, 10% FDR) (binary (1 = stabilised)); higher = stabilised by the compound; conditions: system: HL-60 intact cells; concentration range 0.04-10 µM
Method: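 2D thermal proteome profiling in intact HL-60 cells treated with BRD-3811 (0, 0.04, 0.29, 2, 10 uM) for 90 min at 37 C, then heated 3 min at one of 12 temperatures (42-63.9 C). Soluble protein was quantified by TMT10 MS. The value is the DLPTP call of the paper: dose-dependent thermal stabilisation over all temperatures at 10% FDR (F-test of a dose-response against a flat model); one experiment, one call per tested protein.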

Target	dose-dependent thermal stabilisation call
RXRA (UniProt P19793)	inactive: 0
RPL6 (UniProt Q02878)	inactive: 0
SEPT6 (UniProt Q14141)	inactive: 0
SEPT8 (UniProt Q92599)	inactive: 0
RNF34 (UniProt Q969K3)	inactive: 0
RPGR (UniProt Q92834)	inactive: 0
RPS4X (UniProt P62701)	inactive: 0
SCFD1 (UniProt Q8WVM8)	inactive: 0
SCD (UniProt O00767)	inactive: 0
SEC23A (UniProt Q15436)	inactive: 0
SCFD2 (UniProt Q8WU76)	inactive: 0
SCRN2 (UniProt Q96FV2)	inactive: 0
RRAS (UniProt P10301)	inactive: 0
RPN2 (UniProt P04844)	inactive: 0
SEC61B (UniProt P60468)	inactive: 0
RPS19 (UniProt P39019)	inactive: 0
RPS11 (UniProt P62280)	inactive: 0
SDF4 (UniProt Q9BRK5)	inactive: 0
RPL23 (UniProt P62829)	inactive: 0
SEPT9 (UniProt Q9UHD8)	inactive: 0

Exported in CSV form: entries from further up
Target,dose-dependent thermal stabilisation call
SCD (UniProt O00767),inactive: 0
RPS11 (UniProt P62280),inactive: 0

(listing goes on)

Target	dose-dependent thermal stabilisation call
RPL36 (UniProt Q9Y3U8)	inactive: 0
RRP7A (UniProt Q9Y3A4)	inactive: 0
RPRD1B (UniProt Q9NQG5)	inactive: 0
SEH1L (UniProt Q96EE3)	inactive: 0
RPS20 (UniProt P60866)	inactive: 0
RPLP2 (UniProt P05387)	inactive: 0
RPL4 (UniProt P36578)	inactive: 0
RUFY3 (UniProt Q7L099)	inactive: 0
RP2 (UniProt O75695)	inactive: 0
RXRB (UniProt P28702)	inactive: 0
RPS15 (UniProt P62841)	inactive: 0
RPTOR (UniProt Q8N122)	inactive: 0
SELI (UniProt Q9C0D9)	inactive: 0
RPS26L1 (UniProt Q5JNZ5)	inactive: 0
RNF25 (UniProt Q96BH1)	inactive: 0
SAE1 (UniProt Q9UBE0)	inactive: 0
SCARB2 (UniProt Q14108)	inactive: 0
SEPSECS (UniProt Q9HD40)	inactive: 0
RPL30 (UniProt P62888)	inactive: 0
SDC1 (UniProt P18827)	inactive: 0
